Source: article PMC3224827
No constants are given. Whether binding was seen depends on the method and setting. In cells and extracts the contact can be indirect. Binding calls can cover weak binding; strength is not graded here. Tags and fused reporters may be left off the sequences shown. Blank lines part the entries; values can stand above or below the molecule they belong to.

Experiments:
[1] = target: T1, hFRMD7-FL-HA (human FERM domain containing protein 7, original form, HA-tagged) (human) (UniProt Q6ZUT3); assay: co-IP; NT2 cells transiently co-transfected with hFRMD7-FL-HA and hFRMD7-S-Myc, lysed 48 h after transfection (M-PER); ProFound Co-Immunoprecipitation Kit; IP with anti-HA and blot with anti-Myc, and the reverse; controls: non-specific immunoglobulins, cells with only one construct
T1 sequence: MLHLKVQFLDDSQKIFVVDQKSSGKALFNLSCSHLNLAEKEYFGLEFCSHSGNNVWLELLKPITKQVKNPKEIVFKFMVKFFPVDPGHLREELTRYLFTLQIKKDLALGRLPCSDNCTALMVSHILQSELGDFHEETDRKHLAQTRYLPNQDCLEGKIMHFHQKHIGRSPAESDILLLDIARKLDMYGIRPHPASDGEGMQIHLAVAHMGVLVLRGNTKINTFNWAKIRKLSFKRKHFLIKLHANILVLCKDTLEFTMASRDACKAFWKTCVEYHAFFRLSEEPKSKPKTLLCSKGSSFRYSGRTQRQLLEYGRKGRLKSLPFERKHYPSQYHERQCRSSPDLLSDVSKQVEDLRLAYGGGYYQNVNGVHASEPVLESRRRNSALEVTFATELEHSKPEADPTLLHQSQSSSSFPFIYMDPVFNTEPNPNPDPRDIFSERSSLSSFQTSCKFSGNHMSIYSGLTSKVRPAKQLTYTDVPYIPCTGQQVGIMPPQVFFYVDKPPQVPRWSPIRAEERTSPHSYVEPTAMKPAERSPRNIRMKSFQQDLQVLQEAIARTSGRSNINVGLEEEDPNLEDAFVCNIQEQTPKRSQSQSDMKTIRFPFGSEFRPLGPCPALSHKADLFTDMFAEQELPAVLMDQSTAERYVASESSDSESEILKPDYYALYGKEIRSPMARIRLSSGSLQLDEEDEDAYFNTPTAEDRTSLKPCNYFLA

[2] = target: hFRMD7-S-Myc (human FRMD7 splice variant with shortened exon 4, Myc-tagged) (human); assay: as above

binding [1]: binds
Molecule: hFRMD7-S-Myc (human FRMD7 splice variant with shortened exon 4, Myc-tagged)

binding [2]: binds
B1: hFRMD7-FL-HA (human FERM domain containing protein 7, original form, HA-tagged) (protein, UniProt Q6ZUT3-1 1-714)
chain: T1 sequence
